# Experimental data: PubChem BioAssay AID1259405 (NCATS, 2018)
# Purpose: 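Knock-downs that lift recombinant protein yield in hamster ovary cells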 (primary screen)
# Cell system: Chinese hamster CHO-K1 ovary cells with stable secreted eGFP expression
# Knock-down reagent: single siRNA against mouse genes, 0.8 pmol siRNA per well (2 µl of 400 nM stock)
# Duration: 3 days
# Measurement: 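Percent of the per-plate non-targeting control median for intracellular GFP per well by laser scanning cytometry and for cell viability by ATP luminescence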
# Reading the numbers: GFP, % of control: higher = more GFP per well, higher productivity; viability (ATP), % of control: higher = more viable cells (more ATP)
# Rule for the call: 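Called active when intracellular GFP, relative to negative control, is at or above 120%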
# In all, the deposit lists about 50,000 reagents; this is a part drawn at random. Of all reagents, about 4,000 (8%) are marked active. 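Mouse siRNA library applied to hamster cells; one well for each siRNA.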 A number with no mark means an inactive call. The numbers tell different reagents against one gene apart.
target gene,reagent,"GFP, % of control","viability (ATP), % of control"
Flacc1,1,138 (active),113
Flacc1,2,111,78.2
Flacc1,3,127 (active),134
Slc32a1,1,44.3,69.7
Slc32a1,2,87.1,94.7
Slc32a1,3,92.7,78.9
Ngfr,1,171 (active),74.6
Ngfr,2,69.6,88
Ngfr,3,87.2,86.2
Ceacam18,1,48.7,66
Ceacam18,2,54.1,65.4
Ceacam18,3,108,120
Kcna3,1,102,53.3
Kcna3,2,79.5,73
Kcna3,3,80.3,82.6

Next part; the last 5 above are carried over.
target gene,reagent,"GFP, % of control","viability (ATP), % of control"
Ceacam18,2,54.1,65.4
Ceacam18,3,108,120
Kcna3,1,102,53.3
Kcna3,2,79.5,73
Kcna3,3,80.3,82.6
Cfh,1,58.8,65.9
Cfh,2,48.9,43.7
Cfh,3,99.3,81.7
Morc4,1,95.4,101
Morc4,2,91,82.9
Morc4,3,59.9,67.2
Cfap20dc,1,89.7,67.4
Cfap20dc,2,91.5,72.8
Cfap20dc,3,104,80.6
Mef2b,1,71.5,67.1
Mef2b,2,43.7,50.6
Mef2b,3,90.3,87.8
Popdc1,1,75.5,84.9
Popdc1,2,77.3,88.3
Popdc1,3,100,103
Hemk2,1,183 (active),80.6
Hemk2,2,74.6,62.1
Hemk2,3,67.4,66.5
Eomes,1,57,80.6
Eomes,2,86.6,99.1
